According to PMC7660924:
Results are given in words; binding and its absence hold for the method and conditions named. Some binding calls cover weakened binding; strength is not graded here. Sequences can lack the tags named with a protein.

Amino acid sequences for entries named in this document (tags omitted). Residues count along the entry.
UniProt Q94CL7, residues 208-362: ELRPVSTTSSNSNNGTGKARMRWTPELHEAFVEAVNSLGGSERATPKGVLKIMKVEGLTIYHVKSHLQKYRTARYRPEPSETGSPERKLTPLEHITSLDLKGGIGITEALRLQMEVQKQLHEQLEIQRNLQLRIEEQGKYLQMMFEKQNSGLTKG

How the values were obtained:
[1] = target: truncated PHOSPHATE STARVATION RESPONSE 1 (PHR1) carrying the GARP domain and CCD (208-362 aa), yeast two-hybrid fusion (Arabidopsis thaliana) (UniProt Q94CL7); experiment: two-hybrid; yeast strain AH109; GAL4 activation domain fusions as prey, GAL4 DNA-binding domain fusions as bait; growth on SD/-Leu/-Trp/-His/-Ade, 30°C, 5 d
[2] = target: T1, HRS1 HOMOLOG 4 (HHO4), full length, yeast two-hybrid fusion (Arabidopsis thaliana) (UniProt Q9ZQ85); experiment: as above
T1 sequence: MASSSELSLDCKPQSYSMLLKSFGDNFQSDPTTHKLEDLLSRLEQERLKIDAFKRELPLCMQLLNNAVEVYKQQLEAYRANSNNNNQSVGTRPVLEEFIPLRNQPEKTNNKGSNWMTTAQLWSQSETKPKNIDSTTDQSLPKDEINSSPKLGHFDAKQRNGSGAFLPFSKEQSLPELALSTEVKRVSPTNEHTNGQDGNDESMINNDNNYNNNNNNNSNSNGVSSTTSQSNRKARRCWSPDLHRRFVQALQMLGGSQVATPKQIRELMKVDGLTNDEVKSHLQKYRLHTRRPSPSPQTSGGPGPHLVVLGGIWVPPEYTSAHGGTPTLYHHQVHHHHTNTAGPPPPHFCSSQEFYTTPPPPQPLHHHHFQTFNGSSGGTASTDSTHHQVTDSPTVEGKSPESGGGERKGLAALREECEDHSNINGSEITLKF

binding [1]: no binding
binding [2]: binds
B1: NIGT1.4, full length, yeast two-hybrid fusion (protein, UniProt Q9FX67 1-344)
chain: MIKKFSNMDYNQKRERCGQYIEALEEERRKIHVFQRELPLCLDLVTQAIEACKRELPEMTTENMYGQPECSEQTTGECGPVLEQFLTIKDSSTSNEEEDEEFDDEHGNHDPDNDSEDKNTKSDWLKSVQLWNQPDHPLLPKEERLQQETMTRDESMRKDPMVNGGEGRKREAEKDGGGGRKQRRCWSSQLHRRFLNALQHLGGPHVATPKQIREFMKVDGLTNDEVKSHLQKYRLHTRRPRQTVPNNGNSQTQHFVVVGGLWVPQSDYSTGKTTGGATTSSTTTTTGIYGTMAAPPPPQWPSHSNYRPSIIVDEGSGSHSEGVVVRCSSPAMSSSTRNHYVKNN
